According to publication PMC11892016:
Results are given in words; binding and its absence hold for the method and conditions named. A result given as binding can be weak or reduced; the word gives no strength.

The chains behind the UniProt entries cited, without tags or fusion partners. Where a name states a change or a piece, a line headed by the entry shows the natural chain unless it says otherwise.
UniProt P12830: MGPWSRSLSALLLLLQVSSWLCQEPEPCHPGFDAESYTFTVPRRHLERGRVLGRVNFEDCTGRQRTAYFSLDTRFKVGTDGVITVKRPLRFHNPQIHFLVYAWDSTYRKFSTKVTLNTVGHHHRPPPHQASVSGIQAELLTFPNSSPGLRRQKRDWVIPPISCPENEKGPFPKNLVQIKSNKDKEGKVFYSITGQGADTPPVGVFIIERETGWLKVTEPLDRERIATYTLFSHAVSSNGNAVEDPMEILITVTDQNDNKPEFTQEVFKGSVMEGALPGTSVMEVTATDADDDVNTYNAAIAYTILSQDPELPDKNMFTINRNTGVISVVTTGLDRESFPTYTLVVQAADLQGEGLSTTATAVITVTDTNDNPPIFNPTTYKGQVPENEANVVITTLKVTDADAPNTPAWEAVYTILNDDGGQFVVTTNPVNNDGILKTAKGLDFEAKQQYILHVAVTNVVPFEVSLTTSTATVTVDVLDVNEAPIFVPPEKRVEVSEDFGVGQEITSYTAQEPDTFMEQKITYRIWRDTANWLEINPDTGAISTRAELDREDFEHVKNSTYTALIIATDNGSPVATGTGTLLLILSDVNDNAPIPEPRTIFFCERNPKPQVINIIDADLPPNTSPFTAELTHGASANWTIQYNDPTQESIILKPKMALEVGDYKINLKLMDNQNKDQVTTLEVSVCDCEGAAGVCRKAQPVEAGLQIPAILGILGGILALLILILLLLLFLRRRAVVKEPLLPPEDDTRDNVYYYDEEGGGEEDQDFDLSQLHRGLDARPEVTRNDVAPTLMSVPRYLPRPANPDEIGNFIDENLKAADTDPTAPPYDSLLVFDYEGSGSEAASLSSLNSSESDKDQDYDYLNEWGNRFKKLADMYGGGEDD
UniProt O43474: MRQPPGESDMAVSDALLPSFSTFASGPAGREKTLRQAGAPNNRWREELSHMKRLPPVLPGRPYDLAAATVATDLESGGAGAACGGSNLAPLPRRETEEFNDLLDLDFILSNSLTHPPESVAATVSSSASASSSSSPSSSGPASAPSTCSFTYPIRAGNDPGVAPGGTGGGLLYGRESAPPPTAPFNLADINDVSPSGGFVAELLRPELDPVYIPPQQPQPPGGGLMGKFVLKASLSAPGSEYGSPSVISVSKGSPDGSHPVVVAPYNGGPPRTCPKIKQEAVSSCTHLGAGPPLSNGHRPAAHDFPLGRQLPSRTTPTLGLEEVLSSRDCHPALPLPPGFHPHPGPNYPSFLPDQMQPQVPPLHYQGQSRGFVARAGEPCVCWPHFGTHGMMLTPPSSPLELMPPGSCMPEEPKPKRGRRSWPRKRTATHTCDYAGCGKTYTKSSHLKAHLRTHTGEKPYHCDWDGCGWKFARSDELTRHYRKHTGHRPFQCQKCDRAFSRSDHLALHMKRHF

Biological target: GST‐E‐cadherin (human) (UniProt P12830)
Assay: pull-down; GST-E-cadherin held on GST resin, washed; purified KLF4-His added; eluate analysed by SDS-PAGE and Western blot with anti-His and anti-GST; both purified

**Q.** How did the binding turn out when KLF4‐His (from UniProt O43474 1-513) was run?
**A.** binds
